# Measured data: PubChem BioAssay AID1259308 (NCATS, 2017)
# Purpose: 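Candidate targets for better recombinant protein yield in mammalian cells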 (primary screen)
# System: human HEK293 embryonic kidney cells stably expressing firefly luciferase (HEK-CMV-Luc2-Hygro)
# Knock-down reagent: single siRNA against human genes, 0.8 pmol siRNA per well
# Duration: 72 h
# Read-out: 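Luciferase light (ONE-Glo) measured on one replicate plate set and viability (CellTiter-Glo) on the other, scaled to a negative control siRNA, with robust z-scores and luciferase per cell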
# Scale: total luciferase, z-score and total luciferase, % of control: higher = more reporter protein produced; luciferase per cell, z-score: higher = more reporter output per viable cell; viable cells, % of control: higher = more viable cells
# Call rule: 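Active when the median/MAD z-score for overall luciferase is greater than 3; a gene was taken forward for validation with new siRNAs if at least two of its three siRNAs passed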
# Calls: active = raised luciferase; inactive = no rise
# In all, the deposit lists about 59,000 reagents; shown is an unselected part. About 1,510 of all reagents (2.6%) count as active. 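Calls use total luciferase alone and ignore viability, so some active siRNAs may act by altering cell number.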 Reagents against one gene are numbered here. Reagent sequences are not shown.
target gene,reagent no.,"total luciferase, z-score","total luciferase, % of control","luciferase per cell, z-score","viable cells, % of control",outcome
SLC22A15,1,0.863,99.1,0.97,85.7,inactive
SLC22A15,2,-0.331,75.3,-0.36,92.5,inactive
SLC22A15,3,-2.01,41.8,-1.48,69,inactive
MRPL41 (mitochondrial ribosomal protein L41),1,-1.43,53.4,-1.44,87.1,inactive
MRPL41 (mitochondrial ribosomal protein L41),2,0.151,84.9,0.644,80.1,inactive
MRPL41 (mitochondrial ribosomal protein L41),3,-0.758,66.8,-0.307,80.9,inactive
RFX6 (regulatory factor X6),1,0.776,97.3,0.51,95.1,inactive
RFX6 (regulatory factor X6),2,-0.375,74.4,-0.655,98.8,inactive
RFX6 (regulatory factor X6),3,-1.44,53.2,-0.862,74.6,inactive
FGA (fibrinogen alpha chain),1,0.323,88.3,-0.0782,101,inactive
FGA (fibrinogen alpha chain),2,0.827,98.3,0.492,96.5,inactive
FGA (fibrinogen alpha chain),3,-1.58,50.5,-2.34,104,inactive
SCARA5 (scavenger receptor class A member 5),1,0.0193,82.3,0.332,84.2,inactive
SCARA5 (scavenger receptor class A member 5),2,-0.716,67.6,-0.499,86.2,inactive
SCARA5 (scavenger receptor class A member 5),3,0.357,89,0.437,88.6,inactive
CCL20 (C-C motif chemokine ligand 20),1,4.11,164,2.24,101,active
CCL20 (C-C motif chemokine ligand 20),2,0.152,84.9,-0.328,103,inactive
CCL20 (C-C motif chemokine ligand 20),3,0.29,87.7,0.12,94.9,inactive
LTB4R (leukotriene B4 receptor),1,1.12,104,1.54,77.7,inactive
LTB4R (leukotriene B4 receptor),2,-0.708,67.8,-1.19,104,inactive
LTB4R (leukotriene B4 receptor),3,-0.968,62.6,-1.11,93.7,inactive
BMF (Bcl2 modifying factor),1,0.179,85.4,-0.245,102,inactive
BMF (Bcl2 modifying factor),2,-0.289,76.1,-0.542,98.1,inactive
BMF (Bcl2 modifying factor),3,-0.0122,81.6,-0.457,103,inactive
GTPBP2 (GTP binding protein 2),1,-0.994,62.1,-1.24,96.1,inactive
GTPBP2 (GTP binding protein 2),2,0.92,100,0.477,98.7,inactive
GTPBP2 (GTP binding protein 2),3,-0.446,73,-0.686,97.7,inactive
LCN1 (lipocalin 1),1,-0.0497,80.9,-0.331,98.6,inactive
LCN1 (lipocalin 1),2,0.151,84.9,0.023,94.3,inactive
LCN1 (lipocalin 1),3,0.023,82.3,0.543,79.8,inactive
SNRPEP2 (SNRPE pseudogene 2),1,1.61,114,2.54,65.3,inactive
SNRPEP2 (SNRPE pseudogene 2),2,5.08,183,5.17,52.4,active
SNRPEP2 (SNRPE pseudogene 2),3,2.89,139,3.09,69,inactive
"PIN1 (peptidylprolyl cis/trans isomerase, NIMA-interacting 1)",1,0.323,88.3,-0.0482,99.9,inactive
"PIN1 (peptidylprolyl cis/trans isomerase, NIMA-interacting 1)",2,0.581,93.4,-0.0238,105,inactive
"PIN1 (peptidylprolyl cis/trans isomerase, NIMA-interacting 1)",3,2.07,123,1.38,95.6,inactive
LIPH (lipase H),1,-0.433,73.3,-0.561,94.9,inactive
LIPH (lipase H),2,0.571,93.2,1.32,73.5,inactive
LIPH (lipase H),3,-0.968,62.6,-0.674,83.6,inactive
GPR108 (G protein-coupled receptor 108),1,1.43,110,1.08,92.8,inactive
GPR108 (G protein-coupled receptor 108),2,0.777,97.3,0.362,98.9,inactive
GPR108 (G protein-coupled receptor 108),3,0.238,86.6,0.298,89.5,inactive
DHX15 (DEAH-box helicase 15),1,1.46,111,1.81,77,inactive
DHX15 (DEAH-box helicase 15),2,1.89,120,1.48,90.5,inactive
DHX15 (DEAH-box helicase 15),3,4.52,172,3.25,81.6,active
CHEK2 (checkpoint kinase 2),1,0.841,98.6,0.155,106,inactive
CHEK2 (checkpoint kinase 2),2,0.961,101,1.21,82.2,inactive
CHEK2 (checkpoint kinase 2),3,1.51,112,1.42,86.1,inactive
"PSENEN (presenilin enhancer, gamma-secretase subunit)",1,0.177,85.4,-0.38,105,inactive
"PSENEN (presenilin enhancer, gamma-secretase subunit)",2,0.18,85.5,0.187,90.9,inactive
"PSENEN (presenilin enhancer, gamma-secretase subunit)",3,-0.0411,81.1,-0.187,95.2,inactive
RNF144A (ring finger protein 144A),1,0.231,86.5,0.0622,95.1,inactive
RNF144A (ring finger protein 144A),2,-0.716,67.6,-0.793,93.1,inactive
RNF144A (ring finger protein 144A),3,1.92,120,2.66,66.6,inactive
CAND2 (cullin associated and neddylation dissociated 2 (putative)),1,-1.27,56.7,-0.68,75.8,inactive
CAND2 (cullin associated and neddylation dissociated 2 (putative)),2,-0.117,79.6,-0.233,94.5,inactive
CAND2 (cullin associated and neddylation dissociated 2 (putative)),3,-0.199,77.9,0.814,70.3,inactive
